Earlier results, collected in patent US20100255088A1 (priority 2009, published 2010).
Some entries share one result that the patent states for a list of compounds.

Conditions: sublingual

CN1C[C@H](C(=O)N[C@]2(C)O[C@@]3(O)[C@@H]4CCCN4C(=O)[C@H](Cc4ccccc4)N3C2=O)C=C2c3cccc4[nH]cc(c34)C[C@H]21 [ergotamine]
absorption rate: less than 5%
